Source: PubChem BioAssay AID248 (DTP/NCI, 2004)
The list shows only some results of the screen, not a fair sample: it is rich in T/C values a quarter to a half above the control, in often repeated tests (any T/C) and in doses without a T/C. Further doses and runs are listed elsewhere. T/C: endpoint of the treated group in % of that of the vehicle group. Some entries give survivors of the animals treated and no T/C: the source holds a T/C of zero for them, seemingly a mark for toxic or unscored doses. Some survivor counts are full or nearly so, which does not show that the dose was tolerated: survival well below the control is almost never listed, so the zero probably covers shortened survival too. Counts of survivors are from the toxicity check (mostly the fifth day) where no day follows; animals may have died later. Schedule codes are those of the source, read here as Q, the interval in days (D) or hours (H), X, the number of doses. Some entries were tested several times; the results are listed from low to high. Where survival is the endpoint, the PubChem record calls one and a half times the control and up active, and a quarter to a half above the control has no call in these data; cut-offs in other NCI protocols can differ. Some T/C values are followed by the survivors on the day toxicity was checked, most often the fifth; where none is given, no animal had died by that day.

Tested on: L1210 leukemia ip in BDF1 mice, survival T/C
Assay: NCI In Vivo Anticancer Drug Screen. Data for tumor model L1210 Leukemia (intraperitoneal) in B6D2F1 (BDF1) mice
Settings: higher T/C = longer survival
[1] = T/C endpoint: mean survival time, dose: 150.0 mg/kg/injection, schedule: Q01DX001 (ip), vehicle: saline
[2] = T/C endpoint: mean survival time, dose: 300.0 mg/kg/injection, schedule: Q01DX001 (ip), vehicle: saline
[3] = T/C endpoint: mean survival time, dose: 400.0 mg/kg/injection, schedule: Q01DX009 (ip), vehicle: saline with Tween-80
[4] = T/C endpoint: mean survival time, dose: 400.0 mg/kg/injection, schedule: Q04DX003 (ip), vehicle: Klucel (hydroxypropylcellulose) (HPC)
[5] = T/C endpoint: mean survival time, dose: 200.0 mg/kg/injection, schedule: Q01DX001 (ip), vehicle: carboxymethylcellulose (CMC)
[6] = T/C endpoint: mean survival time, dose: 400.0 mg/kg/injection, schedule: Q01DX001 (ip), vehicle: carboxymethylcellulose (CMC)
[7] = T/C endpoint: mean survival time, dose: 100.0 mg/kg/injection, schedule: Q04DX002 (ip), vehicle: Klucel (hydroxypropylcellulose) (HPC)
[8] = T/C endpoint: mean survival time, dose: 400.0 mg/kg/injection, schedule: Q01DX001 (ip), vehicle: saline
[9] = T/C endpoint: mean survival time, dose: 400.0 mg/kg/injection, schedule: Q04DX002 (ip), vehicle: Klucel (hydroxypropylcellulose) (HPC)

CC(=O)OCC(=O)[C@@]1(O)[C@H](C)C[C@H]2[C@@H]3C=C(C)C4=Cc5c(cnn5-c5ccc(F)cc5)C[C@]4(C)[C@H]3[C@@H](O)C[C@@]21C
survivor count (T/C endpoint: mean survival time, dose: 12.5 mg/kg/injection, schedule: Q01DX009 (sc), vehicle: steroid suspending solution): 4 of 6 | survivor count (T/C endpoint: mean survival time, dose: 25.0 mg/kg/injection, schedule: Q01DX009 (sc), vehicle: steroid suspending solution): 3 of 6 | survivor count (T/C endpoint: mean survival time, dose: 50.0 mg/kg/injection, schedule: Q01DX009 (ip), vehicle: steroid suspending solution): 5 of 6 | survivor count (T/C endpoint: mean survival time, dose: 100.0 mg/kg/injection, schedule: Q01DX009 (ip), vehicle: steroid suspending solution): 6 of 6 | survivor count (T/C endpoint: mean survival time, dose: 200.0 mg/kg/injection, schedule: Q01DX009 (ip), vehicle: steroid suspending solution): 3 of 6 | survivor count (T/C endpoint: mean survival time, dose: 400.0 mg/kg/injection, schedule: Q01DX001 (ip), vehicle: steroid suspending solution): 6 of 6

Cc1ccc(C(C)(C)CP(c2ccccc2)c2ccccc2)cc1
survivor count (T/C endpoint: mean survival time, dose: 100.0 mg/kg/injection, schedule: Q04DX002 (ip), vehicle: saline with Tween-80): 3 of 3

O=C1C=CC(=O)N1c1cc(Cl)c(Cl)cc1Cl
survivor count (T/C endpoint: mean survival time, dose: 75.0 mg/kg/injection, schedule: Q01DX001 (ip), vehicle: saline): 0 of 6 | survivor count [1]: 0 of 6 | survivor count [2]: 0 of 6

O=C(NCCCc1ccc(S(=O)(=O)F)cc1)Oc1ccc([N+](=O)[O-])cc1
survivor count (T/C endpoint: mean survival time, dose: 200.0 mg/kg/injection, schedule: Q01DX009 (ip), vehicle: saline with Tween-80): 3 of 6 | survivor count [3]: 2 of 6

O=S1(=O)CC(N2CCCCC2)C1
survivor count [1]: 2 of 6 | survivor count [2]: 0 of 6

O=C1N(c2ccccc2)C(=O)N1c1ccccc1
survivor count [4]: 6 of 6

Oc1ccc(-c2ccccc2)cc1Br
survivor count (T/C endpoint: mean survival time, dose: 400.0 mg/kg/injection, schedule: Q04DX003 (ip), vehicle: saline with Tween-80): 3 of 6

[O-]/[N+](=C\c1ccccc1)Cc1ccccc1
survivor count (T/C endpoint: mean survival time, dose: 400.0 mg/kg/injection, schedule: Q04DX003 (ip), vehicle: carboxymethylcellulose (CMC)): 3 of 6

O=NN(CCCl)C(=O)Nc1ccc(Br)cc1
T/C (T/C endpoint: mean survival time, dose: 3.0 mg/kg/injection, schedule: Q01DX015 (ip), vehicle: carboxymethylcellulose (CMC)): 127 % of control | T/C (T/C endpoint: mean survival time, dose: 3.75 mg/kg/injection, schedule: Q01DX009 (ip), vehicle: carboxymethylcellulose (CMC)): 130 % of control | T/C (T/C endpoint: mean survival time, dose: 5.0 mg/kg/injection, schedule: Q01DX009 (ip), vehicle: carboxymethylcellulose (CMC)): 127 % of control | T/C (T/C endpoint: mean survival time, dose: 5.0 mg/kg/injection, schedule: Q01DX015 (ip), vehicle: carboxymethylcellulose (CMC)): 136 % of control [5 of 6 alive] | T/C (T/C endpoint: mean survival time, dose: 8.0 mg/kg/injection, schedule: Q01DX009 (ip), vehicle: carboxymethylcellulose (CMC)): 127 % of control | T/C (T/C endpoint: mean survival time, dose: 8.0 mg/kg/injection, schedule: Q01DX015 (ip), vehicle: carboxymethylcellulose (CMC)): 134 % of control [5 of 6 alive] | T/C (T/C endpoint: mean survival time, dose: 12.0 mg/kg/injection, schedule: Q01DX015 (ip), vehicle: carboxymethylcellulose (CMC)): 125 and 136 % of control | T/C (T/C endpoint: mean survival time, dose: 19.0 mg/kg/injection, schedule: Q01DX015 (ip), vehicle: carboxymethylcellulose (CMC)): 133 and 146 % of control | T/C (T/C endpoint: mean survival time, dose: 29.0 mg/kg/injection, schedule: Q01DX015 (ip), vehicle: carboxymethylcellulose (CMC)): 128 and 148 % of control | T/C (T/C endpoint: mean survival time, dose: 44.4 mg/kg/injection, schedule: Q01DX001 (ip), vehicle: carboxymethylcellulose (CMC)): 149 % of control | survivor count (T/C endpoint: mean survival time, dose: 66.0 mg/kg/injection, schedule: Q01DX015 (ip), vehicle: carboxymethylcellulose (CMC)): 6 of 6 | T/C (T/C endpoint: mean survival time, dose: 66.6 mg/kg/injection, schedule: Q01DX001 (ip), vehicle: carboxymethylcellulose (CMC)): 146 % of control | T/C (T/C endpoint: mean survival time, dose: 100.0 mg/kg/injection, schedule: Q01DX001 (ip), vehicle: carboxymethylcellulose (CMC)): 133 % of control | survivor count (T/C endpoint: mean survival time, dose: 100.0 mg/kg/injection, schedule: Q01DX015 (ip), vehicle: carboxymethylcellulose (CMC)): 4 of 6 | T/C (T/C endpoint: mean survival time, dose: 150.0 mg/kg/injection, schedule: Q01DX001 (ip), vehicle: carboxymethylcellulose (CMC)): 146 % of control | T/C [5]: 127 % of control | survivor count [6]: 0 of 4

CCCCCCc1cc(N=Nc2ccc(S(=O)(=O)Nc3nnc(C)s3)cc2)c(O)cc1O
survivor count [6]: 1 of 4

[I][Hg][CH2]C1COC([CH2][Hg][I])CO1 (configuration not stated)
survivor count (T/C endpoint: median survival time, dose: 12.5 mg/kg/injection, schedule: Q01DX009 (ip), vehicle: saline): 6 of 6 | survivor count (T/C endpoint: median survival time, dose: 25.0 mg/kg/injection, schedule: Q01DX009 (ip), vehicle: saline): 6 of 6 | survivor count (T/C endpoint: median survival time, dose: 50.0 mg/kg/injection, schedule: Q01DX009 (ip), vehicle: saline): 6 of 6 | survivor count (T/C endpoint: median survival time, dose: 100.0 mg/kg/injection, schedule: Q01DX009 (ip), vehicle: saline): 3 of 6 and 4 of 6

c1cc[c]([Pb]([c]2ccccc2)([c]2ccccc2)[c]2ccccc2)cc1
survivor count [7]: 3 of 3

Cc1c(CCO)sc[n+]1Cc1cccc([N+](=O)[O-])c1
survivor count (T/C endpoint: mean survival time, dose: 200.0 mg/kg/injection, schedule: Q01DX001 (ip), vehicle: saline): 0 of 6 | survivor count [8]: 0 of 6

Cl/C(=N\Nc1ccccc1)c1ccccc1
T/C (T/C endpoint: mean survival time, dose: 7.5 mg/kg/injection, schedule: Q01DX009 (ip), vehicle: saline sonified): 128 % of control

CN(C(=S)Nc1ccccc1)c1cc(N2CCCC2)ccn1
survivor count [8]: 1 of 6

Cc1ccc(C)c(NC(=O)NCc2ccco2)c1
survivor count [3]: 5 of 6

C/C(=C/c1ccccc1)OC(=O)c1ccccc1
survivor count [5]: 4 of 4 | survivor count [6]: 4 of 4

CCCCNC(=O)N(CC)C(=NCC)c1ccc(NC(=O)c2ccc(C(=O)Nc3ccc(C(=NCC)N(CC)C(=O)NCCCC)cc3)cc2)cc1
survivor count (T/C endpoint: mean survival time, dose: 50.0 mg/kg/injection, schedule: Q01DX015 (ip), vehicle: methylcellulose (MC)): 0 of 6 | survivor count (T/C endpoint: mean survival time, dose: 100.0 mg/kg/injection, schedule: Q01DX015 (ip), vehicle: methylcellulose (MC)): 0 of 6 | survivor count (T/C endpoint: mean survival time, dose: 200.0 mg/kg/injection, schedule: Q01DX015 (ip), vehicle: methylcellulose (MC)): 0 of 6 | survivor count (T/C endpoint: mean survival time, dose: 400.0 mg/kg/injection, schedule: Q01DX015 (ip), vehicle: methylcellulose (MC)): 0 of 6

CCCCCCCCNc1cc2c3c(c1)CCCN3CCC2
survivor count (T/C endpoint: mean survival time, dose: 6.25 mg/kg/injection, schedule: Q01DX009 (ip), vehicle: saline): 3 of 6 | survivor count (T/C endpoint: mean survival time, dose: 12.5 mg/kg/injection, schedule: Q01DX009 (ip), vehicle: saline): 0 of 6 | survivor count (T/C endpoint: mean survival time, dose: 12.5 mg/kg/injection, schedule: Q04DX003 (ip), vehicle: alcohol): 4 of 6 | survivor count (T/C endpoint: mean survival time, dose: 25.0 mg/kg/injection, schedule: Q01DX009 (ip), vehicle: saline): 0 of 6 | survivor count (T/C endpoint: mean survival time, dose: 50.0 mg/kg/injection, schedule: Q04DX003 (ip), vehicle: alcohol): 0 of 6 | survivor count (T/C endpoint: mean survival time, dose: 100.0 mg/kg/injection, schedule: Q04DX003 (ip), vehicle: alcohol): 0 of 6 | survivor count (T/C endpoint: mean survival time, dose: 200.0 mg/kg/injection, schedule: Q04DX003 (ip), vehicle: alcohol): 0 of 6 | survivor count (T/C endpoint: mean survival time, dose: 400.0 mg/kg/injection, schedule: Q04DX003 (ip), vehicle: alcohol): 0 of 6

O=C(O)c1ccccc1Cl.[Ni]
survivor count [7]: 0 of 3 and 3 of 3 | survivor count (T/C endpoint: mean survival time, dose: 200.0 mg/kg/injection, schedule: Q04DX002 (ip), vehicle: Klucel (hydroxypropylcellulose) (HPC)): 0 of 3 | survivor count [9]: 0 of 3

CCOP(N)(=S)OCC
survivor count [2]: 2 of 6

NC(=O)COc1ccc2ccccc2c1Cl
survivor count [9]: 3 of 3

CSc1nncc(-c2ccccc2)n1
survivor count (T/C endpoint: mean survival time, dose: 200.0 mg/kg/injection, schedule: Q01DX001 (ip), vehicle: Klucel (hydroxypropylcellulose) (HPC)): 3 of 6 | survivor count (T/C endpoint: mean survival time, dose: 400.0 mg/kg/injection, schedule: Q01DX001 (ip), vehicle: Klucel (hydroxypropylcellulose) (HPC)): 0 of 6

CC(C)(C)c1ccc(SC(=O)NCCCl)cc1
survivor count [4]: 0 of 6
